Assay results reported in patent US20160252495A1 (UNIVERSITY OF BRITISH COLUMBIA, published 2016).
No constants are given. Whether binding was seen depends on the method and setting. A result given as binding can be weak or reduced; the word gives no strength.

B1: Hs-7 human monoclonal antibody (antibody, V domains shown)
VH: QVQLQESGPGLVKSSETLSLTCTVSGDSITSSTYDWGWIRQPPGKGLEWIGNVYYRGSTYYNPSLKSRVTISVDRSRTQISLRLSSVTAADTALYFCARHPKRLTVFEVVNAFDIWGQGQTMVTVFSASTKGPSVFPLAPSSKSTSGGTA
VL: QSALTQPASVSASPGQSITISCTGISSDIGGYSSVSWYQAHPGKAPKLMIYDVNNRPSGISNRFSGSKSGNTASLAISGLQAEDEADYYCSLYTSINASIVFGGGTKLTVLGQPKAAPSVTLFPPSS
B2: Hs-15 human monoclonal antibody (antibody, V domains shown)
VH: QLQLQESGPGLVKPSETLSLTCTVSGDSISSSTYYWGWIRQPPGKGLEWIAFIFYSGSTFYNPSLKSRVTVSVDRSTNQFSLRLKSVTAADTSRYYCARHPKRISIFEVVNAFDIWGQGTMVTVSS
VL: QSALTQPASVSGSPGQSITITCTGISSDVGAYNSVSWYQQYPGKSPKLMIYDVSNRSSGVSNRFSGSKSDNTASLTISGLQAEDEASYFCSLYRSSTTSVVFGGGTKLTVLR

Tests used:
[1] = target: H1N1 labeled antigen (hemagglutinin subtype H1N1) (influenza virus H1N1); test: functional validation of recombinant mAbs, bead assay
[2] = target: H3N2 labeled antigen (hemagglutinin subtype H3N2) (influenza virus H3N2); test: as above

Row | Binder | binding [1] | binding [2]
1 | B1 | binds | binds
2 | B2 | binds | binds
